The source of these data is PMC11996858, “Cathepsin K cleavage of angiopoietin-2 creates detrimental Tie2 antagonist fragments in sepsis” (The Journal of Clinical Investigation, 2025).

Sequences of proteins named here, by UniProt entry; tags and fusion partners are left off. A change or cut given only in a name is not applied to a line headed by its entry. Residues count along the entry.
UniProt O15123: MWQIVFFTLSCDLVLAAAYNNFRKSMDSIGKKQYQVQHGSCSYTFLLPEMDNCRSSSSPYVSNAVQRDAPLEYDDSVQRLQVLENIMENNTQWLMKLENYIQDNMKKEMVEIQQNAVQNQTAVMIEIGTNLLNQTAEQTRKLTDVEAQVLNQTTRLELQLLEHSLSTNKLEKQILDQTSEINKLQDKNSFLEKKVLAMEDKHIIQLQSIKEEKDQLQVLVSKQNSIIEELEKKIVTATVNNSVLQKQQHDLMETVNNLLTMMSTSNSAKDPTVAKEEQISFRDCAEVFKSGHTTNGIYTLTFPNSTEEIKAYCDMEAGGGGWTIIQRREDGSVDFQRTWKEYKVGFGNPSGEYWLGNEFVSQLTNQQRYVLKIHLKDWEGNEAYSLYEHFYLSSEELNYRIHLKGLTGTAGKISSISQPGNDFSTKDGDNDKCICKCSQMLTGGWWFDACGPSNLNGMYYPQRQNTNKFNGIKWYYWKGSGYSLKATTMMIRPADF
UniProt Q02763, residues 23-748: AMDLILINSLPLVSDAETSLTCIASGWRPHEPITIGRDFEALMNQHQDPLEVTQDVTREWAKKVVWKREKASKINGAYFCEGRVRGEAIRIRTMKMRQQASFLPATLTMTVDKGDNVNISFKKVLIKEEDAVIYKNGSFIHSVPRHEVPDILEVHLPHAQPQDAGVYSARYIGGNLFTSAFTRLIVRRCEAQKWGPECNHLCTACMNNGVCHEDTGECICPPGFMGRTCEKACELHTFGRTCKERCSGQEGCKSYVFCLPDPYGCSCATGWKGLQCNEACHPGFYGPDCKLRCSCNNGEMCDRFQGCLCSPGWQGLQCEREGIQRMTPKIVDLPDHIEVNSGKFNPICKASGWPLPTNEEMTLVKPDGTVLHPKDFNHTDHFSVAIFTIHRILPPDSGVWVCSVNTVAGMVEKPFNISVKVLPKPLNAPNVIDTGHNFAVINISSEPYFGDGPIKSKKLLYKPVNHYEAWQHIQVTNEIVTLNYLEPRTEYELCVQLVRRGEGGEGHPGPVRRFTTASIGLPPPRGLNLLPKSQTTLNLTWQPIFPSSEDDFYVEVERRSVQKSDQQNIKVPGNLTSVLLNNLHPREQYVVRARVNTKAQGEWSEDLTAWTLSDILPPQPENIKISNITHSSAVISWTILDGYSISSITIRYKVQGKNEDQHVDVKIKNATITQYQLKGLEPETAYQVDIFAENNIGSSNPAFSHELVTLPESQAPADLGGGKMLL

No constants are given. Whether binding was seen depends on the method and setting. For part of these data: In cells and extracts the contact can be indirect. Some results given as binding are weak or reduced against the parent protein; the word gives no strength.

The target of assay [1] is cANGPT2_(25), cleavage product of recombinant ANGPT2 incubated with CM-Mq^LPS (human) (UniProt O15123). The experiment in a line: non-reducing SDS-PAGE with Western blot; recombinant ANGPT2 incubated with CM-Mq^Veh or CM-Mq^LPS (serum-free conditioned media of RAW264.7 cells), then SDS-PAGE under nonreducing conditions against reduced conditions (10% beta-mercaptoethanol) and Western analysis for ANGPT2; both purified.

The target in another assay is Tie2-Fc (UniProt Q02763). The experiment in a line: pull-down; Tie2-Fc as bait; details only in Supplemental Figure 5 and Supplemental Methods (not shown).

Take “cANGPT2_(25), cleavage product of recombinant ANGPT2 incubated with CM-Mq^LPS (from UniProt O15123 253-496) (domain or fragment)”: in assay [1], the binding entry is recorded as “no binding”. With “recombinant cANGPT2_(25), ANGPT2 (253E-496F) (from UniProt O15123 253-496) (domain or fragment)”, the binding result with Tie2-Fc was “binds”. For “recombinant cANGPT2_(50), ANGPT2 (55S-496F) (from UniProt O15123 55-496) (domain or fragment)”, in the assay with Tie2-Fc, the binding entry is on record as “binds”.
